Data published in US20240002505A1.
Numbering of substitutions follows the chain as printed. Results are given in words; binding and its absence hold for the method and conditions named. Some results given as binding are weak or reduced against the parent protein; the word gives no strength.

Amino acid sequences for entries named in this document (tags omitted). Residues count along the entry.
UniProt P06127, residues 25-372: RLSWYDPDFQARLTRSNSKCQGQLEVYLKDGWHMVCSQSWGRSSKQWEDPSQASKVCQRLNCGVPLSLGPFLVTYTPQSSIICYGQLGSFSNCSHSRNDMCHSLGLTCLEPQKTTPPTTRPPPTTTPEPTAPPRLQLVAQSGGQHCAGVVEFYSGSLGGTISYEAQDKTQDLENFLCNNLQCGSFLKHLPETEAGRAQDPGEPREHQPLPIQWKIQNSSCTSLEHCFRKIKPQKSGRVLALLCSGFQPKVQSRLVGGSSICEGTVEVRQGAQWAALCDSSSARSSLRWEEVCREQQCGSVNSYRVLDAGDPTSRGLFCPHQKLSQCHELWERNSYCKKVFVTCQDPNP

B1: Clone 10 anti-CD5 IgG (antibody, V domains shown)
VH: EVQLLESGGGLVKPGGSLRLSCAASGFTFNNYTMNWVRQAPGKGLEWVSSISSSSSYIYYADSVKGRFTISRDNAKNSLFLQMNSLRGEDTAVYYCARYFSGSAGDYWGQGTLVTVSS
VL: QSVVTQPPSVSGAPGQRVTISCTGSSSNIGAGYDVHWYQQLPGTAPKLLIYGNINRPSGVPDRFSGSKSGTSASLAITGLQAEDEADYYCGTWDNSLSAHYVFGTGTKVTVLG
B2: Clone 32 anti-CD5 IgG (antibody, V domains shown)
VH: QVQLVESGGGLVKPGGSLRLSCAASGFTFSSYSMNWVRQAPGKGLEWVSSISSSSSYIYYADSVKGRFTISRDNAKNSLYLQMNSLRAEDTAVYYCARGNPWYGVDYWGQGTLVTVSS
VL: QSVLTQPPSVSAAPGQKVTISCSGSNSNIGNNYVSWYQQLPGTAPKRLIYDNNKRPSGIPDRFSGSKSGTSATLGITGLQTGDEADYYCGIWDSSLDAYVFGTGTKVTVLG
B3: Clone 35 anti-CD5 IgG (antibody, V domains shown)
VH: QVQLVESGGGLVQPGGSLRLSCAASGFTFSSYAMSWVRQTPGKGLEWVSTITDSGDITYYTASVQGRFTISRDNSKNTLYLQMNSLRAEDTAVYYCARMSSHWYFSADYWGQGTLVTVSS
VL: B2 VL with N26S, R47L, I91T, D97S, Y99V, T103G, V107L

What follows are binders tested against CD5 antigen (Octet affinity determination, Example 8) (UniProt P06127) (assay: BLI (Octet)).

Row | binding | Binder
1 | binds | B1
2 | binds | B2
3 | binds | B3
